In article PMC10042540, “Targeting oncogenic KRasG13C with nucleotide-based covalent inhibitors” (eLife, 2023):

Tested on: KRas
Assay: Electroporation into HeLa cells, western blot quantification
Format: cell-based, human
Settings: for KRas mean fold change: mean of cell lysates

| Substance | KRas fold change (50 µg, Cell lysate 1) | KRas fold change (50 µg, Cell lysate 2) | KRas fold change (50 µg, Cell lysate 3) | KRas mean fold change (50 µg) | KRas fold change (100 µg, Cell lysate 1) | KRas fold change (100 µg, Cell lysate 2) | KRas fold change (100 µg, Cell lysate 3) | KRas mean fold change (100 µg) | KRas fold change (200 µg, Cell lysate 1) | KRas fold change (200 µg, Cell lysate 2) | KRas fold change (200 µg, Cell lysate 3) | KRas mean fold change (200 µg) | KRas fold change (300 µg, Cell lysate 1) | KRas fold change (300 µg, Cell lysate 2) | KRas fold change (300 µg, Cell lysate 3) | KRas mean fold change (300 µg) |
| --- | --- | --- | --- | --- | --- | --- | --- | --- | --- | --- | --- | --- | --- | --- | --- | --- |
| KRasG13C-edaGDP: KRasG13C covalently locked with edaGDP at Cys13 | 3.66 | 7.00 | 3.42 | 4.69 | 7.36 | 10.20 | 10.00 | 9.19 | 15.00 | 18.10 | 17.60 | 16.90 | 14.00 | 33.80 | 27.10 | 24.97 |
| KRasG13C-edaGppCp: KRasG13C covalently modified with edaGppCp | 2.70 | 3.63 | – | 3.17 | 22.50 | 7.10 | – | 14.80 | 18.20 | 8.84 | – | 13.52 | 32.00 | 13.00 | – | 22.50 |
| KRasG13C:acetyledaGDP: KRasG13C non-covalently loaded with acetyledaGDP, control | 1.86 | 3.06 | 2.70 | 2.54 | 3.77 | 6.87 | 3.59 | 4.74 | 13.20 | 34.60 | 13.20 | 20.33 | 25.20 | 50.90 | 19.70 | 31.93 |
| KRasG13C: recombinant oncogenic KRasG13C mutant protein, GDP-bound | 10.10 | 12.20 | 2.79 | 8.36 | 16.60 | 17.60 | 4.10 | 12.77 | 37.90 | 21.60 | 13.40 | 24.30 | 53.60 | 30.50 | 20.80 | 34.97 |
